Common to all, as to assay: log2 fold change, soluble protein after heating vs DMSO (PISA); higher = thermal stabilisation; K562 lysate, 10 uM; active = over 0.2 and 3.5 SD of the protein, either way, in both replicates (recomputed)
Compound in assay [1]: NCC(=O)Nc1ccc(-n2nc(C(F)(F)F)cc2-c2ccc3c(ccc4ccccc43)c2)cc1
The method in brief: (§1)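 A 30 min treatment with 10 μM compound was applied to crude K562 extract at 1 mg/mL protein in PBS pH 7.4 with 1 mM MgCl2. Heating for 3 min spanned 48°C-58°C, after which aliquots were pooled, adjusted to 0.5% NP-40 at 4°C and spun at 21,000xg for 90 min. TMTpro 16plex LC-MS/MS of the supernatant, with channel sums equalised, gave values recorded as log-two fold change in thermal stability against solvent controls, from duplicates.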

The chains behind the UniProt entries cited, without tags or fusion partners. Where a name states a change or a piece, a line headed by the entry shows the natural chain unless it says otherwise.
UniProt Q8N5I4: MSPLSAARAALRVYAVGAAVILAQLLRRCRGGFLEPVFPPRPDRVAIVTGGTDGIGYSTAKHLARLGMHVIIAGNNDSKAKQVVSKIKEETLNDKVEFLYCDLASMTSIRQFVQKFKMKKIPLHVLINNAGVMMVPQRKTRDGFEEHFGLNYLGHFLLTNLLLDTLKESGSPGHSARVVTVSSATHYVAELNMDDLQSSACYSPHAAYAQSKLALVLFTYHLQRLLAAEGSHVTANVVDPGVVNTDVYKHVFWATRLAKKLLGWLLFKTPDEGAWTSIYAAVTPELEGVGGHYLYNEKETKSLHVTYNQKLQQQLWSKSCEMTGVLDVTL
UniProt Q6ZR08: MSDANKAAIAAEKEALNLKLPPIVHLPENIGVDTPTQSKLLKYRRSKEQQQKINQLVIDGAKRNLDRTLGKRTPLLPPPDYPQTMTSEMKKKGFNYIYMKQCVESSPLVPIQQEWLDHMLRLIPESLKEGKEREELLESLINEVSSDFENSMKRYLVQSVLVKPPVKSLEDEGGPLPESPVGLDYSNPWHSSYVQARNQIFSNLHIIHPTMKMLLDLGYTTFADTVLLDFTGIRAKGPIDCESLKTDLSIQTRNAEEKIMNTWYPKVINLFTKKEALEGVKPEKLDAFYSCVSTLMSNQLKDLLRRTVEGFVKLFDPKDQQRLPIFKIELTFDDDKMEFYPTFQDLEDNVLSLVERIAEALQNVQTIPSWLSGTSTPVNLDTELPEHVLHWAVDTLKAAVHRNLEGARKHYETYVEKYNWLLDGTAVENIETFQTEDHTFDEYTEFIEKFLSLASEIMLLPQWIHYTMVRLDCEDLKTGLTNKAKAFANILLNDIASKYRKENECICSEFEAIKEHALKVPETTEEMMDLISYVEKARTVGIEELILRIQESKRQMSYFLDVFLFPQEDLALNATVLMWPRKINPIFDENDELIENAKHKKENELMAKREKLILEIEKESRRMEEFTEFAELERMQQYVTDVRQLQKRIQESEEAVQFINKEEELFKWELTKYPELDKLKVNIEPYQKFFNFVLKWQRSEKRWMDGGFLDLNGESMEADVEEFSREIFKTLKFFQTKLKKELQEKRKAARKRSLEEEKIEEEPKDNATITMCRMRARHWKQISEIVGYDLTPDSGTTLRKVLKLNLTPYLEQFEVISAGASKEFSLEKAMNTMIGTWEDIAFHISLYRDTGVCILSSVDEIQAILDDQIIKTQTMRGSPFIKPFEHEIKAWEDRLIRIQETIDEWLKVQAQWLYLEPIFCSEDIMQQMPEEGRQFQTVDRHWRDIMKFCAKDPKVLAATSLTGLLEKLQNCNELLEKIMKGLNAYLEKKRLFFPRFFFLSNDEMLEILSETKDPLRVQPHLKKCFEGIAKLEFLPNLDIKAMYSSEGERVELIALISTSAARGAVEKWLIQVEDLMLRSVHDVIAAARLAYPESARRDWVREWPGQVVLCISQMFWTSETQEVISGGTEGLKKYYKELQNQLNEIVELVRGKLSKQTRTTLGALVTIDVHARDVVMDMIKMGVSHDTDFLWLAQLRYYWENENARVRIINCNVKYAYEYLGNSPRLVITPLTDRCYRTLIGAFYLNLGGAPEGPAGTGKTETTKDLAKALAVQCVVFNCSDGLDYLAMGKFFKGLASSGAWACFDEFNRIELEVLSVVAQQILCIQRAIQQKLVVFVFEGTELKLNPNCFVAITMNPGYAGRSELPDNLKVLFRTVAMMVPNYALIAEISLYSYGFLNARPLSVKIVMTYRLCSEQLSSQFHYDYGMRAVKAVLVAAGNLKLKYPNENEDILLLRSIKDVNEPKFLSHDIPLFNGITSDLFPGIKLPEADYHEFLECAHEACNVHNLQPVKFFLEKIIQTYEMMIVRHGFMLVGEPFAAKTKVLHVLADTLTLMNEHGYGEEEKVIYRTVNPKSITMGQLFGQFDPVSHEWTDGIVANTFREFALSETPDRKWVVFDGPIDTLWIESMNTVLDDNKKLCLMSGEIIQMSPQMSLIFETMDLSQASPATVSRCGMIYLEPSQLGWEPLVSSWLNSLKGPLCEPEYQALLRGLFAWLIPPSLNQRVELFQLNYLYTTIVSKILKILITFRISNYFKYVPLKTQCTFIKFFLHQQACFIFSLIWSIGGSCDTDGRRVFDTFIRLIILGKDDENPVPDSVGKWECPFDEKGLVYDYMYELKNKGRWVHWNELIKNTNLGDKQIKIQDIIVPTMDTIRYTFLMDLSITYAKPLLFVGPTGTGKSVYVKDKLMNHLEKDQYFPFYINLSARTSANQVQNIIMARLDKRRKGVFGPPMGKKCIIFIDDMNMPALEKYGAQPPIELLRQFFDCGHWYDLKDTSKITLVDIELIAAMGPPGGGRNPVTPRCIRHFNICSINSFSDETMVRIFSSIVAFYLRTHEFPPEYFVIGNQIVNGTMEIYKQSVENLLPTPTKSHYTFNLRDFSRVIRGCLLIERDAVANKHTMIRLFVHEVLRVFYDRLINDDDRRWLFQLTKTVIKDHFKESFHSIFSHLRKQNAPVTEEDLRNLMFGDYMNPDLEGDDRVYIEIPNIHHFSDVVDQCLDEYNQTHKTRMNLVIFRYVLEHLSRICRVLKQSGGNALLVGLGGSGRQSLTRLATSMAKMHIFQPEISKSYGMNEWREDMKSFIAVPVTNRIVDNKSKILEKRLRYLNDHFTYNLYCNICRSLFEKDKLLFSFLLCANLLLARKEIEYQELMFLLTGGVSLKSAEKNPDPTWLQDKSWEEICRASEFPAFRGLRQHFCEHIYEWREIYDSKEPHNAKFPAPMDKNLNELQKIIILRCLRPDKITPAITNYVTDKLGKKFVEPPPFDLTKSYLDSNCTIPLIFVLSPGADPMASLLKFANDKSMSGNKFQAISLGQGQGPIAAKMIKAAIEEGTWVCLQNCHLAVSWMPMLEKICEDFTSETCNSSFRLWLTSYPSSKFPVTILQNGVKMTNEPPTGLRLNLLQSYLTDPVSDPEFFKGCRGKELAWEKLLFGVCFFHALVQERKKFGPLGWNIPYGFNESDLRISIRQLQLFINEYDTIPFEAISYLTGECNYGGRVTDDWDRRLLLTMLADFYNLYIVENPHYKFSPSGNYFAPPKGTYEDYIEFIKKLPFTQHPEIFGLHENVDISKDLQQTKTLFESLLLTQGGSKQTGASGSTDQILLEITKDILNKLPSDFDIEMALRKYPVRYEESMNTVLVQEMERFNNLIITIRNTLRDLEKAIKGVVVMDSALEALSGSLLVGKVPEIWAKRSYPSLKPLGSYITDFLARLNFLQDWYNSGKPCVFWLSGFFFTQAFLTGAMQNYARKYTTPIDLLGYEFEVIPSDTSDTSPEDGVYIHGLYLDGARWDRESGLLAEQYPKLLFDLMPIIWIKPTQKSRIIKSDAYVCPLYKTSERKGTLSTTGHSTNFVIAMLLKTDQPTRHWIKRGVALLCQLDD
UniProt O76075: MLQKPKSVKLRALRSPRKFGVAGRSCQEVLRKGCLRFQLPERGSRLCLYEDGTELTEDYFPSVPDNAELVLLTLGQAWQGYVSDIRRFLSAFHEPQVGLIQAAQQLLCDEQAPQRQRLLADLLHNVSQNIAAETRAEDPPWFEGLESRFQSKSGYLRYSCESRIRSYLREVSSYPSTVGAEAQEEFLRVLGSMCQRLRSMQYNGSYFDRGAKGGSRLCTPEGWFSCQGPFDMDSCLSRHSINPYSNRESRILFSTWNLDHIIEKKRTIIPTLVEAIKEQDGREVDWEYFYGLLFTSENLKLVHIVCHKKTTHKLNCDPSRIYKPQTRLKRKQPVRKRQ
UniProt Q14147: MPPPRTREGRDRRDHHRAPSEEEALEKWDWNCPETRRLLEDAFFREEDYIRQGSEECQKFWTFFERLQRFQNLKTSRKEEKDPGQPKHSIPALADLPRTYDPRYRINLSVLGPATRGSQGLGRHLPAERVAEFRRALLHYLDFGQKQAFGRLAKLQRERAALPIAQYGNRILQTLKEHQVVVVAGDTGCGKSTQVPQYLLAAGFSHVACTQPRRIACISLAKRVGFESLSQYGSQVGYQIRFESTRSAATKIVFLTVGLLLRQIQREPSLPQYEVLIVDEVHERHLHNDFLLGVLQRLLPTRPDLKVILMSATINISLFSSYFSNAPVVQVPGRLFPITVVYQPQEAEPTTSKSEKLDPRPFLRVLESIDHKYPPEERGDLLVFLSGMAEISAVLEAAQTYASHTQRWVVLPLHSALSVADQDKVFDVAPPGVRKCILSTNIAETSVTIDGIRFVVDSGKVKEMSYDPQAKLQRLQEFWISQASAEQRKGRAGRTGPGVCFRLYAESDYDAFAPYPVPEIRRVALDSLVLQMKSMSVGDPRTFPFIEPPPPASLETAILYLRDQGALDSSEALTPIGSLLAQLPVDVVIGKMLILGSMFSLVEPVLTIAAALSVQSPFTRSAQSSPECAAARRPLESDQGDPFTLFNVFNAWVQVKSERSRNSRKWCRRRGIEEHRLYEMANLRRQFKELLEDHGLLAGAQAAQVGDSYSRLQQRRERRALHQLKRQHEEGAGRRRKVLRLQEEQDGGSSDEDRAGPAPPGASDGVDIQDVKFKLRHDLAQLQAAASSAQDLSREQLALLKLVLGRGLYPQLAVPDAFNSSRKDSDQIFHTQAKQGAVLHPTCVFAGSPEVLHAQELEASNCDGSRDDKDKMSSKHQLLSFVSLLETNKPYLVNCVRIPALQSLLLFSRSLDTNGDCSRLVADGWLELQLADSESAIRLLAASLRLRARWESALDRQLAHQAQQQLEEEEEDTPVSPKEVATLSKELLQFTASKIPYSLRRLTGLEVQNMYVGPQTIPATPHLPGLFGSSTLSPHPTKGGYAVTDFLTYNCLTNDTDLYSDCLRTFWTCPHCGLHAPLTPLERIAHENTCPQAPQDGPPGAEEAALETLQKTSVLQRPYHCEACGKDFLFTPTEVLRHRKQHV
UniProt Q15398: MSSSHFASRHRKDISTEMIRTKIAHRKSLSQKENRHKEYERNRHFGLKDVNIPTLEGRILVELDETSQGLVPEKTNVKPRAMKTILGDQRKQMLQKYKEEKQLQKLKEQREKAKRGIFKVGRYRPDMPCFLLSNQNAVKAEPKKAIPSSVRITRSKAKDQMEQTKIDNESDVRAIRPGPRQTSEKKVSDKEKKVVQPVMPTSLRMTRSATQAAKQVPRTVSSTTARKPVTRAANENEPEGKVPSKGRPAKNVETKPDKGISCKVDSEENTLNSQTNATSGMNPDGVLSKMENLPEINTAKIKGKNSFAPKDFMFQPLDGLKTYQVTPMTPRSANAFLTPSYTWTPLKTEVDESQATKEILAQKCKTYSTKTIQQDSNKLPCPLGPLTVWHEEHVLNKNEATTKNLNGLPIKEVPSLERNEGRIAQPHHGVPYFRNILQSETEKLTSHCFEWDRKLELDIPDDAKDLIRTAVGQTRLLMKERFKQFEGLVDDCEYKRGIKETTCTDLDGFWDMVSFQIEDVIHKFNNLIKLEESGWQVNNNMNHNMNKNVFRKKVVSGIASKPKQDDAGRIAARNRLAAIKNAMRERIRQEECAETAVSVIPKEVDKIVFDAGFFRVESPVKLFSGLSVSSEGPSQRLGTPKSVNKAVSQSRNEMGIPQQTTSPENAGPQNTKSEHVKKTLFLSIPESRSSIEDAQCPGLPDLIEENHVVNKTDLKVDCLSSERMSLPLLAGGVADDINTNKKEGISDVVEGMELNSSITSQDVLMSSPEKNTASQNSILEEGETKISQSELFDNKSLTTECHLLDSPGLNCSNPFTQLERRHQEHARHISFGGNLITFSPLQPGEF
UniProt Q9Y222: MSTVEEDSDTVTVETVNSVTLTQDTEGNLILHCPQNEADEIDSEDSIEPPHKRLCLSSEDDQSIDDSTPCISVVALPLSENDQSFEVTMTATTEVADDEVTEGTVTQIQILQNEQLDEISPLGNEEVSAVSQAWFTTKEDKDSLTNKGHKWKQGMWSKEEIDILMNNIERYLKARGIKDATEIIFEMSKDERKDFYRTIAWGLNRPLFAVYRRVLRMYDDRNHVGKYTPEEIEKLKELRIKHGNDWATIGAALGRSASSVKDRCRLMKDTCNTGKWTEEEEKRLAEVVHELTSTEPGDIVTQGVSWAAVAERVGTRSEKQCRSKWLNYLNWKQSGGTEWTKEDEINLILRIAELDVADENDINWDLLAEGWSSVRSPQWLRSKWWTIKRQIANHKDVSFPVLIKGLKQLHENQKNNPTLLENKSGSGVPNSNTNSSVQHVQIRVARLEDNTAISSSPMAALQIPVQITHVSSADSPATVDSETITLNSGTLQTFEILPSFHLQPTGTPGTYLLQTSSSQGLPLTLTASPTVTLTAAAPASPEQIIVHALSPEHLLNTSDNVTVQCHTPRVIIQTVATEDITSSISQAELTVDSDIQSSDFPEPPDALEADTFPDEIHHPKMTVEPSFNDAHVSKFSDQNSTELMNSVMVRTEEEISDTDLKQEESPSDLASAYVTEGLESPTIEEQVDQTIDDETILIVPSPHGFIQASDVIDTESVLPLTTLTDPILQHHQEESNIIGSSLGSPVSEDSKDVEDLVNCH

Compound in another assay: O=C(CCCCCCC(=O)Nc1ccccc1)NO [vorinostat]
The method in brief:
as §1

Compound in another assay: O=C(O)c1ccc2c(c1)nc(Nc1cccc(Cl)c1)c1ccncc12 [silmitasertib]
The method in brief: as §1

Compound in assay [2]: O=C1NC(=O)C(c2cnc3ccccn23)=C1c1cn2c3c(cc(F)cc13)CN(C(=O)N1CCCCC1)CC2
In outline:
as §1

Compound in the next assay: c1cn2cc(-c3ccc4cn[nH]c4c3)nc(Nc3ccc(N4CCOCC4)cc3)c2n1 [entospletinib]
The method in brief:
as §1

Consider eleven targets from the supplement of paper PMC10849652.

Some of the results follow.

With DHRSX (UniProt Q8N5I4), the log2 fold change was inactive: 0.011 in assay [1], inactive: 0.044 in the assay with vorinostat and inactive: -0.177 in the assay with silmitasertib.
On to DNHD1 (UniProt Q96M86), for which the log2 fold change in assay [1] is inactive: 0.232; in the assay with vorinostat, inactive: 0.038; with silmitasertib it was inactive: -0.009; in assay [2], inactive: -0.065.
On to DNAH12 (UniProt Q6ZR08), for which, in assay [1], the log2 fold change was inactive: 0.037.
As for DLG5 (UniProt Q8TDM6), the log2 fold change in assay [1] is inactive: 0.127.
On to DFFB (UniProt O76075), for which the log2 fold change in assay [1] was inactive: -0.003; with vorinostat, active: 0.258; with silmitasertib, inactive: -0.025; in assay [2], inactive: 0.013; in the assay with entospletinib, inactive: -0.011.
In the same order, the values of DNAJC13 (UniProt O75165) are inactive: 0, inactive: 0.029, inactive: -0.001, inactive: 0.041 and inactive: -0.023.
In the same order, the values of DHRS11 (UniProt Q6UWP2) are inactive: -0.006, active: -0.255, inactive: -0.014, inactive: 0.02 and inactive: -0.011.
In the same order, the values of DHX34 (UniProt Q14147) are inactive: 0.066, inactive: -0.081, inactive: -0.009, inactive: -0.01 and inactive: 0.043.
In the case of DLGAP5 (UniProt Q15398), the log2 fold change in assay [1] is inactive: -0.008; with vorinostat, active: -0.252; in the assay with silmitasertib, inactive: -0.002; in assay [2], inactive: -0.006; with entospletinib, inactive: -0.004.
The matching figures for DMTF1 (UniProt Q9Y222): inactive: -0.096, inactive: 0.004, inactive: 0.022, inactive: -0.012 and inactive: 0.007.
The matching figures for DIPK2A (UniProt Q8NDZ4): inactive: -0.129, inactive: 0.148, inactive: 0.14, inactive: -0.094 and inactive: 0.
